Laboratory results reported in the supplement of paper PMC12009310.
Structures can show the parent of a compound that is named as a salt. ± gives the standard deviation of the averaged measurements. This is one part of the list. Plates or batches differ in their baseline, so values are only roughly comparable.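 The cells are a mouse kidney inner medullary collecting duct line, silenced either for the ciliary gene Rpgrip1l or with a non-targeting control siRNA.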

How the values were obtained:
mIMCD3 [1] = experiment: robust z score of cell number vs plate controls; higher = more cells (less cytotoxic); details: 10 µM, 48 h
mIMCD3 [2] = experiment: robust z score of cilia incidence (% cells with single cilium) vs plate controls; higher = more ciliated cells; details: 10 µM; 48 h; siRNA: siScr
mIMCD3 [3] = experiment: robust z score of cilia incidence (% cells with single cilium) vs plate controls; higher = more ciliated cells (rescue of cilia loss); details: 10 µM; 48 h; siRNA: siRpgrip1l

CCC(=O)OCN1C(=O)C=CC1=O
robust z score of cell number (mIMCD3 [1]; siRNA: siRpgrip1l): -22.1 ± 29
robust z score of cell number (mIMCD3 [1]; siRNA: siScr): -1.95 ± 1.2
robust z score of cilia incidence (mIMCD3 [2]): 1.09 ± 0.57
robust z score of cilia incidence (mIMCD3 [3]): -8.14 ± 8.4

Nc1ncnc2c1ncn2[C@@H]1O[C@H](CO)C[C@H]1O [Cordycepin]
robust z score of cell number (mIMCD3 [1]; siRNA: siRpgrip1l): -20.6 ± 10
robust z score of cell number (mIMCD3 [1]; siRNA: siScr): -17.7 ± 2.6
robust z score of cilia incidence (mIMCD3 [2]): -12.7 ± 14
robust z score of cilia incidence (mIMCD3 [3]): -25.6 ± 16

CC(C)(C)n1nc(-c2cccc3ccccc23)c2c(N)ncnc21 [1-Naphthyl PP1]
robust z score of cell number (mIMCD3 [1]; siRNA: siRpgrip1l): -18.4 ± 18
robust z score of cell number (mIMCD3 [1]; siRNA: siScr): -7.59 ± 3.2
robust z score of cilia incidence (mIMCD3 [2]): -7.85 ± 9.6
robust z score of cilia incidence (mIMCD3 [3]): -9.6 ± 2.8

CCS(=O)(=O)N(C)[C@H]1c2cc(C#N)ccc2OC(C)(C)[C@@H]1O [(-)-[3R,4S]-Chromanol 293B]
robust z score of cell number (mIMCD3 [1]; siRNA: siRpgrip1l): -49.7 ± 68
robust z score of cell number (mIMCD3 [1]; siRNA: siScr): -11.7 ± 20
robust z score of cilia incidence (mIMCD3 [2]): -0.73 ± 1.1
robust z score of cilia incidence (mIMCD3 [3]): -8.76 ± 8.8

c1ccc(CN2CCC3(CCc4ccccc43)CC2)cc1 [L-693,403 maleate]
robust z score of cell number (mIMCD3 [1]; siRNA: siRpgrip1l): -82 ± 73
robust z score of cell number (mIMCD3 [1]; siRNA: siScr): -58.6 ± 18
robust z score of cilia incidence (mIMCD3 [2]): -33.3 ± 1.1
robust z score of cilia incidence (mIMCD3 [3]): -44.7 ± 24

CCN(Cc1ccncc1)C(=O)C(CO)c1ccccc1 (stereo unspecified) [Tropicamide]
robust z score of cell number (mIMCD3 [1]; siRNA: siRpgrip1l): -3.41 ± 1.5
robust z score of cell number (mIMCD3 [1]; siRNA: siScr): -1.31 ± 1.7
robust z score of cilia incidence (mIMCD3 [2]): -2.08 ± 2.6
robust z score of cilia incidence (mIMCD3 [3]): -8.85 ± 3.3

CC1=NN(c2ccccc2)C(=O)C1
robust z score of cell number (mIMCD3 [1]; siRNA: siRpgrip1l): -2.55 ± 0.31
robust z score of cell number (mIMCD3 [1]; siRNA: siScr): 1.66 ± 1.1
robust z score of cilia incidence (mIMCD3 [2]): 1.8 ± 1.5
robust z score of cilia incidence (mIMCD3 [3]): -4.76 ± 1.9

CCCn1c(=O)c2[nH]c(C3CCCC3)nc2n(CCC)c1=O
robust z score of cell number (mIMCD3 [1]; siRNA: siRpgrip1l): 2.17 ± 0.91
robust z score of cell number (mIMCD3 [1]; siRNA: siScr): -8.63 ± 3
robust z score of cilia incidence (mIMCD3 [2]): 2.19 ± 0.062
robust z score of cilia incidence (mIMCD3 [3]): -4.3 ± 2.4

CS(=O)(=O)Nc1ccc([N+](=O)[O-])cc1Oc1ccccc1 [Nimesulide]
robust z score of cell number (mIMCD3 [1]; siRNA: siRpgrip1l): -28.5 ± 35
robust z score of cell number (mIMCD3 [1]; siRNA: siScr): -11.1 ± 4.2
robust z score of cilia incidence (mIMCD3 [2]): 4.96 ± 3.3
robust z score of cilia incidence (mIMCD3 [3]): -11.4 ± 1.9

O=C(O)CN1C(=O)c2cccc3cccc(c23)C1=O [Alrestatin]
robust z score of cell number (mIMCD3 [1]; siRNA: siRpgrip1l): -13.9 ± 20
robust z score of cell number (mIMCD3 [1]; siRNA: siScr): -8.95 ± 13
robust z score of cilia incidence (mIMCD3 [2]): -0.363 ± 5.9
robust z score of cilia incidence (mIMCD3 [3]): -5.75 ± 6.7

O=[N+]([O-])c1cccc2c[nH]nc12
robust z score of cell number (mIMCD3 [1]; siRNA: siRpgrip1l): -6.42 ± 2.7
robust z score of cell number (mIMCD3 [1]; siRNA: siScr): -4.76 ± 1.1
robust z score of cilia incidence (mIMCD3 [2]): 2.69 ± 0.44
robust z score of cilia incidence (mIMCD3 [3]): 0.335 ± 3.1

CC1=C(C(=O)OCCN(Cc2ccccc2)c2ccccc2)C(c2cccc([N+](=O)[O-])c2)C(P2(=O)OCC(C)(C)CO2)=C(C)N1 (stereo unspecified) [Efonidipine hydrochloride monoethanolate]
robust z score of cell number (mIMCD3 [1]; siRNA: siRpgrip1l): -7.98 ± 2.1
robust z score of cell number (mIMCD3 [1]; siRNA: siScr): -15.6 ± 6.5
robust z score of cilia incidence (mIMCD3 [2]): -4.12 ± 9.8
robust z score of cilia incidence (mIMCD3 [3]): -10.2 ± 5.9

COC(=O)C(Cc1ccc(OCCn2c(=O)sc3cc(C(=O)c4ccccc4)ccc32)cc1)C(=O)OC
robust z score of cell number (mIMCD3 [1]; siRNA: siRpgrip1l): -51 ± 61
robust z score of cell number (mIMCD3 [1]; siRNA: siScr): -0.603 ± 1.6
robust z score of cilia incidence (mIMCD3 [2]): -0.0886 ± 0.24
robust z score of cilia incidence (mIMCD3 [3]): -12.5 ± 2.5

CCc1cc(C(C)=O)c(O)cc1OCCCCCC(C)(C)c1nn[nH]n1
robust z score of cell number (mIMCD3 [1]; siRNA: siRpgrip1l): -24.9 ± 16
robust z score of cell number (mIMCD3 [1]; siRNA: siScr): -34.8 ± 18
robust z score of cilia incidence (mIMCD3 [2]): -1.61 ± 4.1
robust z score of cilia incidence (mIMCD3 [3]): -18.3 ± 22

Cn1cnc2c(NCc3ccccc3)nc(NCCO)nc21 [Olomoucine]
robust z score of cell number (mIMCD3 [1]; siRNA: siRpgrip1l): -33.7 ± 37
robust z score of cell number (mIMCD3 [1]; siRNA: siScr): 0.222 ± 2
robust z score of cilia incidence (mIMCD3 [2]): 1.6 ± 1.3
robust z score of cilia incidence (mIMCD3 [3]): -9.2 ± 2.6

C[C@]12CC[C@@H]3c4ccc(O)cc4C[C@@H](CCCCCCCCC[S+]([O-])CCCC(F)(F)C(F)(F)F)[C@H]3[C@@H]1CC[C@@H]2O (stereo partly specified)
robust z score of cell number (mIMCD3 [1]; siRNA: siRpgrip1l): -22.3 ± 14
robust z score of cell number (mIMCD3 [1]; siRNA: siScr): -9.55 ± 0.72
robust z score of cilia incidence (mIMCD3 [2]): -2.85 ± 3.6
robust z score of cilia incidence (mIMCD3 [3]): -21.4 ± 3.5

O=C(Nc1cccc2cccnc12)c1ccc(N2C(=O)[C@@H]3[C@H](C2=O)[C@@H]2C=C[C@H]3C2)cc1 [endo-IWR 1]
robust z score of cell number (mIMCD3 [1]; siRNA: siRpgrip1l): -30.8 ± 31
robust z score of cell number (mIMCD3 [1]; siRNA: siScr): -7.65 ± 3.1
robust z score of cilia incidence (mIMCD3 [2]): -20.4 ± 6.8
robust z score of cilia incidence (mIMCD3 [3]): -27.5 ± 9.7

CCCOc1ccccc1-c1nc2[nH]nnc2c(=O)[nH]1 [Zaprinast]
robust z score of cell number (mIMCD3 [1]; siRNA: siRpgrip1l): -4.45 ± 1.1
robust z score of cell number (mIMCD3 [1]; siRNA: siScr): -8.6 ± 5.8
robust z score of cilia incidence (mIMCD3 [2]): -4.65 ± 1.1
robust z score of cilia incidence (mIMCD3 [3]): -10.9 ± 4.2

CC(C)(C)[N+]([O-])=Cc1ccc(S(=O)(=O)O)cc1S(=O)(=O)O
robust z score of cell number (mIMCD3 [1]; siRNA: siRpgrip1l): 0.0862 ± 5.3
robust z score of cell number (mIMCD3 [1]; siRNA: siScr): -0.524 ± 3.1
robust z score of cilia incidence (mIMCD3 [2]): -1.49 ± 0.79
robust z score of cilia incidence (mIMCD3 [3]): -4.51 ± 2.6

COc1ccccc1C1(O)CCN(CCCn2c3ccccc3c3ccccc32)CC1 [NNC 05-2090 hydrochloride]
robust z score of cell number (mIMCD3 [1]; siRNA: siRpgrip1l): -31.7 ± 30
robust z score of cell number (mIMCD3 [1]; siRNA: siScr): -14.4 ± 13
robust z score of cilia incidence (mIMCD3 [2]): -27.7 ± 19
robust z score of cilia incidence (mIMCD3 [3]): -29 ± 6.3

CCOC(=O)c1ncn2c1CN(C)C(=O)c1cc(F)ccc1-2 [Flumazenil]
robust z score of cell number (mIMCD3 [1]; siRNA: siRpgrip1l): -20.6 ± 30
robust z score of cell number (mIMCD3 [1]; siRNA: siScr): -3.454 ± 0.024
robust z score of cilia incidence (mIMCD3 [2]): 0.138 ± 1.9
robust z score of cilia incidence (mIMCD3 [3]): -6.53 ± 0.33

Oc1ccc(/C=C/c2cc(O)cc(O)c2)cc1 [Resveratrol]
robust z score of cell number (mIMCD3 [1]; siRNA: siRpgrip1l): -283 ± 200
robust z score of cell number (mIMCD3 [1]; siRNA: siScr): -37.1 ± 7.7
robust z score of cilia incidence (mIMCD3 [2]): -22.8 ± 7.3
robust z score of cilia incidence (mIMCD3 [3]): -24.2 ± 7

COc1cc(Br)c(S(=O)(=O)Nc2ccc(Cl)c(O[C@@H]3CCN(C)C3)c2)cc1OC
robust z score of cell number (mIMCD3 [1]; siRNA: siRpgrip1l): -17.4 ± 17
robust z score of cell number (mIMCD3 [1]; siRNA: siScr): -8.7 ± 5
robust z score of cilia incidence (mIMCD3 [2]): -14.5 ± 2.6
robust z score of cilia incidence (mIMCD3 [3]): -14.8 ± 4.3

CCCCCCCC/C=C\CCCCCCCC(N)=O [Oleamide]
robust z score of cell number (mIMCD3 [1]; siRNA: siRpgrip1l): -3.51 ± 1.6
robust z score of cell number (mIMCD3 [1]; siRNA: siScr): -0.832 ± 0.83
robust z score of cilia incidence (mIMCD3 [2]): -3.19 ± 5.8
robust z score of cilia incidence (mIMCD3 [3]): -9.59 ± 3.3

COc1ccc(OC)c2c(=S)c3ccccc3[nH]c12
robust z score of cell number (mIMCD3 [1]; siRNA: siRpgrip1l): -3.22 ± 0.7
robust z score of cell number (mIMCD3 [1]; siRNA: siScr): -8.58 ± 6.1
robust z score of cilia incidence (mIMCD3 [2]): -0.484 ± 0.28
robust z score of cilia incidence (mIMCD3 [3]): -13.7 ± 8.8

CC/C(=C(\c1ccccc1)c1ccc(OCCN(C)C)cc1)c1ccccc1 [Tamoxifen citrate]
robust z score of cell number (mIMCD3 [1]; siRNA: siRpgrip1l): -30.7 ± 0.55
robust z score of cell number (mIMCD3 [1]; siRNA: siScr): -27.8 ± 14
robust z score of cilia incidence (mIMCD3 [2]): -47.7 ± 7.5
robust z score of cilia incidence (mIMCD3 [3]): -24.8 ± 11

CN(CCOc1ccc(C[C@H](Nc2ccccc2C(=O)c2ccccc2)C(=O)O)cc1)c1ccccn1
robust z score of cell number (mIMCD3 [1]; siRNA: siRpgrip1l): -65.3 ± 62
robust z score of cell number (mIMCD3 [1]; siRNA: siScr): -24.1 ± 5.1
robust z score of cilia incidence (mIMCD3 [2]): -24.3 ± 8.1
robust z score of cilia incidence (mIMCD3 [3]): -392 ± 240

Clc1ccc(-c2nc3sccn3c2/C=N/OCc2ccc(Cl)c(Cl)c2)cc1
robust z score of cell number (mIMCD3 [1]; siRNA: siRpgrip1l): -7.53 ± 7.4
robust z score of cell number (mIMCD3 [1]; siRNA: siScr): -2.68 ± 7.3
robust z score of cilia incidence (mIMCD3 [2]): 0.249 ± 0.91
robust z score of cilia incidence (mIMCD3 [3]): -5.69 ± 3.4

CN1[C@@H]2CC[C@H]1C[C@@H](OC(=O)c1c[nH]c3ccccc13)C2 [Tropisetron hydrochloride]
robust z score of cell number (mIMCD3 [1]; siRNA: siRpgrip1l): -38.3 ± 48
robust z score of cell number (mIMCD3 [1]; siRNA: siScr): -12.2 ± 5.2
robust z score of cilia incidence (mIMCD3 [2]): -37.5 ± 15
robust z score of cilia incidence (mIMCD3 [3]): -36.9 ± 1.5
